Data on 1 sequence can be found in article doi:10.1101/2024.12.26.630380.

Protein sequences, listed by entry. Tags and fused reporters are not part of them. Lines headed by an entry give the natural chain unless they say otherwise; changes in a name come on top.
UniProt C3W947: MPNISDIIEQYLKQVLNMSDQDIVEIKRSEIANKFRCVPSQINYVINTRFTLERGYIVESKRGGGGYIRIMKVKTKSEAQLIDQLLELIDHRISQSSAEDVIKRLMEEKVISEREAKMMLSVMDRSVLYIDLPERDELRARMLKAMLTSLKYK

For at least one entry, the source does not settle the construct or the ends of the probe. Negatives hold for the conditions tested. At least one verdict was read from the data and is not stated in words by the source.

The series addresses pCtsR (CtsR pre-phosphorylated by pMcsB) (UniProt C3W947). Put plainly: EMSA. As to conditions: CtsR phosphorylated by pMcsB and ATP before DNA addition.

“GATTAAGGTCAAATATAGTCAAAATA (double strand) [unlabeled cognate DNA (26bp DNA presumed)]”: the binding result is on record as “no binding”.
